These are yes or no findings as the source states them, for the method shown. Binding seen in cells or lysates may run through a third protein. Here binding means that the protein was enriched with, or labelled near, the bait; the list need not be complete. Tags and fused reporters may be left off the sequences shown.
B1: phosphoribosyl pyrophosphate synthetase 1 (protein, UniProt Q9D7G0 1-318)
chain: MPNIKIFSGSSHQDLSQKIADRLGLELGKVVTKKFSNQETCVEIGESVRGEDVYIVQSGCGEINDNLMELLIMINACKIASASRVTAVIPCFPYARQDKKDKSRAPISAKLVANMLSVAGADHIITMDLHASQIQGFFDIPVDNLYAEPAVLKWIRENISEWRNCTIVSPDAGGAKRVTSIADRLNVDFALIHKERKKANEVDRMVLVGDVKDRVAILVDDMADTCGTICHAADKLLSAGATRVYAILTHGIFSGPAISRINNACFEAVVVTNTIPQEDKMKHCSKIQVIDISMILAEAIRRTHNGESVSYLFSHVPL

Chains of the proteins cited; added tags and fusions are not shown.
UniProt P52332: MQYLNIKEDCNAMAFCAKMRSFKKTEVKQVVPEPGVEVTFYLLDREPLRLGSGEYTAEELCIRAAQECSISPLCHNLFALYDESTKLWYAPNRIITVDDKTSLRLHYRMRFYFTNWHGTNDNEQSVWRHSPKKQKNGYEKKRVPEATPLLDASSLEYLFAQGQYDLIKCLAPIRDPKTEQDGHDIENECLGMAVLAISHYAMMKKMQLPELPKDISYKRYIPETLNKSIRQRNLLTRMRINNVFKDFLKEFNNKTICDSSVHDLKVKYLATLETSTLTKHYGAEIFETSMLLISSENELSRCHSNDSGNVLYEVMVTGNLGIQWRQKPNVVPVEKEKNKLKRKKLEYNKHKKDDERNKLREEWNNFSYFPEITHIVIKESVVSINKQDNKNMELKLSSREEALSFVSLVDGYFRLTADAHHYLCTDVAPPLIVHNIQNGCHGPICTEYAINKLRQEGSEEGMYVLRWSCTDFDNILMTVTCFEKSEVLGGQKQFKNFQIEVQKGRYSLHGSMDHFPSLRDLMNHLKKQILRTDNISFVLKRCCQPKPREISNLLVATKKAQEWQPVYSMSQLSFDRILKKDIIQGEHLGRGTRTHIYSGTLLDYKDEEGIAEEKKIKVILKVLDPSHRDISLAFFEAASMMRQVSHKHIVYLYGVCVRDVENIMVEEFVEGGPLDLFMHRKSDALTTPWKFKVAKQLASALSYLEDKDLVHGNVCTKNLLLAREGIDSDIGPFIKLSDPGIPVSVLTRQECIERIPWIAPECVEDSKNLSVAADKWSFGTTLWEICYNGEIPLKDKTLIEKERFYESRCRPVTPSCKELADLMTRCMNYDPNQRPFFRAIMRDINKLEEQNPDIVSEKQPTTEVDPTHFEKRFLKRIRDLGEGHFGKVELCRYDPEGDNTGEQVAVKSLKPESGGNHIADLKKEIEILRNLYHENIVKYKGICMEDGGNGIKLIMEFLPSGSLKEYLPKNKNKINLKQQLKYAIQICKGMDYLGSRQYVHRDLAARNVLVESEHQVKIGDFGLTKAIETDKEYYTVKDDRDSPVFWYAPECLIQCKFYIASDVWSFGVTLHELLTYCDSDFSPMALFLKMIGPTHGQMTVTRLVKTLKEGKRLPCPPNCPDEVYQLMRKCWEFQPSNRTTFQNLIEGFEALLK
UniProt Q62120: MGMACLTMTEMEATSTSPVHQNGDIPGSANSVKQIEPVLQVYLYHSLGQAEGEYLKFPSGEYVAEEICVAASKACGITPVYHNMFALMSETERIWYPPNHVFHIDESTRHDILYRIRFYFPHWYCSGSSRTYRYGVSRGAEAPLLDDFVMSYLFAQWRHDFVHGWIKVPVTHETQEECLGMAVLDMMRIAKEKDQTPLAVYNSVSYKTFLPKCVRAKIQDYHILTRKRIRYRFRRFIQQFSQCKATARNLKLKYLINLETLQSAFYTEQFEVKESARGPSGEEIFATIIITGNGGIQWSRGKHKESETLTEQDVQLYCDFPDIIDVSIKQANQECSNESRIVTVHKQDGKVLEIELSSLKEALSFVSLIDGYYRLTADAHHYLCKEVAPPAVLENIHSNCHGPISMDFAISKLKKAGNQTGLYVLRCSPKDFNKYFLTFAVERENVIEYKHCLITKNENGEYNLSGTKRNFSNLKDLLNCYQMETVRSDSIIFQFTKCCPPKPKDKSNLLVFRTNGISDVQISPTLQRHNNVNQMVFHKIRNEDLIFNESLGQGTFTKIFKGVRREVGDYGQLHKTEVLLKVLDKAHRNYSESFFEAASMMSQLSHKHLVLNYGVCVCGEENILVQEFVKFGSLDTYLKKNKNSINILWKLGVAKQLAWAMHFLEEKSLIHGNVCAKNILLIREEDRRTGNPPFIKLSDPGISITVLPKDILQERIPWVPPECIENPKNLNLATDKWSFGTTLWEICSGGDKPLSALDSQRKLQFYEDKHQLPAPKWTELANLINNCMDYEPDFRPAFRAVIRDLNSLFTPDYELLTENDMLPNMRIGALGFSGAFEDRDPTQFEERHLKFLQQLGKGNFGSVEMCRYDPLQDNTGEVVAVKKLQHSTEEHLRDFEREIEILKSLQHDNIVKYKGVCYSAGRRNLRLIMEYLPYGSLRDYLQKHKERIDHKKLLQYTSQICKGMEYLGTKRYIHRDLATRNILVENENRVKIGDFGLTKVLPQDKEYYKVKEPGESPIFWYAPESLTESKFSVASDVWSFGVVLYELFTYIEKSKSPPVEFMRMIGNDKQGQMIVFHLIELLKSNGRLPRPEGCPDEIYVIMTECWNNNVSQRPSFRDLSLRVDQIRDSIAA

Target: T1, 3xFLAG-CUZD1 (recombinant FLAG epitope-tagged CUZD1) (UniProt P70412)
T1 sequence: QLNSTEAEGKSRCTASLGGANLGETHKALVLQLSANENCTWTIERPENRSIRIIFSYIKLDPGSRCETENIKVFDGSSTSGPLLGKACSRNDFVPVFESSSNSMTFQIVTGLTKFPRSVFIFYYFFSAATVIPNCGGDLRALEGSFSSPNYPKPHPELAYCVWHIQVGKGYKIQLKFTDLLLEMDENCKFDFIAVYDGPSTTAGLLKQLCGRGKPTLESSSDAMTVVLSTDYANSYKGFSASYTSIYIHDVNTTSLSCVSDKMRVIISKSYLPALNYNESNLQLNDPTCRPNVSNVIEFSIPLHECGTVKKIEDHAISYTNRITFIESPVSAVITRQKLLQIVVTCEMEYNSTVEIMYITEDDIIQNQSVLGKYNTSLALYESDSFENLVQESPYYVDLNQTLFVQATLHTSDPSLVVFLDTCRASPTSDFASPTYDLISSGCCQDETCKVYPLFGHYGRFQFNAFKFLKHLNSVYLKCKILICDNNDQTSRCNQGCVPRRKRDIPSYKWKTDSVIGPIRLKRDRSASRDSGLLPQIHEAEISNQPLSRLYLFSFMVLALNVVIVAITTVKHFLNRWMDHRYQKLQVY
Test: affinity purification with mass spectrometry; soluble extracts of HC11-3xFLAG-Cuzd1 cells, immunoprecipitation with a FLAG antibody, LC/MS of the recovered proteins (Mascot)

binding, binds:
Janus tyrosine kinase 1 (JAK1) (from UniProt P52332 1-1153)
Janus tyrosine kinase 2 (JAK2) (from UniProt Q62120 1-1132)
B1

From paper PMC5363987
